Paper PMC6325143
No constants are given. Whether binding was seen depends on the method and setting. Binding seen in cells or lysates may run through a third protein. Some entries that bind do so weakly or less than the wild type. Where a sequence is shown, tags or fusion partners need not be part of it.

The chains behind the UniProt entries cited, without tags or fusion partners. Residues count along the entry.
UniProt Q05895, residues 22-956: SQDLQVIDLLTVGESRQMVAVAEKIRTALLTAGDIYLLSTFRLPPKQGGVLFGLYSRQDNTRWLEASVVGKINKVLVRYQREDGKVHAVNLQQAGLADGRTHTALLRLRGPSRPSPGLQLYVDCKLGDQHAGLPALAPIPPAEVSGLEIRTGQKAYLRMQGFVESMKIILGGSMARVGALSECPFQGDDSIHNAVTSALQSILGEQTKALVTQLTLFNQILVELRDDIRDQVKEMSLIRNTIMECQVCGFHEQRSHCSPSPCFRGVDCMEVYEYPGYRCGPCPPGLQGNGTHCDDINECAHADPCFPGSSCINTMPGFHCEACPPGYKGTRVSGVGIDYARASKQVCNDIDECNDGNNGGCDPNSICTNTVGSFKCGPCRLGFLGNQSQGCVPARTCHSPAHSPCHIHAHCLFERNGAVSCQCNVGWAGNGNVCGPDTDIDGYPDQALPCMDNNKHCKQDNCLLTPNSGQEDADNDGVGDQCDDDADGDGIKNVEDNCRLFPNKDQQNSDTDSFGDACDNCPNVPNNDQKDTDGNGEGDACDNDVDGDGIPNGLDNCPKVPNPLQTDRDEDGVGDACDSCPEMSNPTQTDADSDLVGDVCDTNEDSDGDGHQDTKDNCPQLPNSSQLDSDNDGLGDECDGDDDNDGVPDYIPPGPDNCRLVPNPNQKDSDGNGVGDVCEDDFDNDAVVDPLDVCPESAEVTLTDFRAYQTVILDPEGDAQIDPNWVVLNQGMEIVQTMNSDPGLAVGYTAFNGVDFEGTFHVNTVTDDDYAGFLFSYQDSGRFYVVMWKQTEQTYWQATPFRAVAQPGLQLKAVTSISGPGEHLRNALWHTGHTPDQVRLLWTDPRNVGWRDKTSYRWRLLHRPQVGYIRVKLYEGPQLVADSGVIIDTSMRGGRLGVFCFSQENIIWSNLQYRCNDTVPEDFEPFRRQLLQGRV

Target: T1, ER luminal domain of activating transcription factor 6α (amino acids 448–570) with Myc tag and C-terminal KDEL retention signal (Ad-ATF6α-DN-Myc-KDEL) (UniProt P18850)
T1 sequence: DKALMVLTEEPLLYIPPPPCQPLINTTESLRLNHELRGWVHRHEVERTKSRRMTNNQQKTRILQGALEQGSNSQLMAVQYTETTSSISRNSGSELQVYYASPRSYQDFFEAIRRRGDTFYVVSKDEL
Assay: co-IP; NRVM co-infected with adenoviruses for Myc-tagged ATF6α and Thbs3 (or βgal control); non-denaturing lysis buffer (1% Triton X-100, 50 mM Tris-HCl pH 7.4, 150 mM NaCl); IP with anti-c-Myc antibody and Protein A/G magnetic beads; Western blot for Thbs3

Substance: Thrombospondin-3 (Thbs3), full-length mouse, overexpressed by adenovirus (AdThbs3) (from UniProt Q05895 22-956)
- binding: binds
